{"source": "PubChem BioAssay AID493014", "about": "(National Center for Advancing Translational Sciences (NCATS), 2011)", "test": "qHTS Assay to Find Inhibitors of Chronic Active B-Cell Receptor Signaling", "settings": "ABC-DLBCL IkBa-CBG/CBR reporter, luminescence ratio (green luciferase fused to IkBa over red control in TMD8 lymphoma cells), 4 h", "method_in_brief": "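Cell line TMD8 (human ABC DLBCL), stably expressing tet-inducible CBG68-IkBa fusion and CBR; IMDM/0.5% FBS; cpd up to 46 uM; dox induction, 4 h, 37C/5% CO2; dual luminescence; green/red ratio; MG132 control.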", "key": {"[1]": {"settings": "measured here: CBR red luminescence, cell number"}, "[2]": {"settings": "measured here: IkBa-CBG green luminescence"}}, "note": "Some of the results follow. These are further read-outs of the screen, such as a control signal, another cell line or another target. No call is given for them. Most of these compounds were active or inconclusive in the main read-out, so they are no random draw. Potencies come from curve fits of mixed quality, noted in brackets."}
{"smiles": "Cc1cc(C(F)(F)F)nn1Cc1n[nH]c(=S)n1-c1ccc(F)cc1", "values": [{"measurement": "AC50", "setting": "[1]", "value": "29.1 µM [rising, single point]"}]}
{"smiles": "Cn1c(=O)n(C)c2cc(NC(=O)c3ccccc3[N+](=O)[O-])c(Br)cc21", "values": [{"measurement": "AC50", "setting": "[1]", "value": "35.5 µM [rising, single point]"}]}
{"smiles": "Cc1nn(-c2ccccc2)c(N)c1N=Nc1ccc2ccccc2c1", "values": [{"measurement": "AC50", "setting": "[1]", "value": "16.4 µM [rising, partial curve, poor fit]"}]}
{"smiles": "COc1ccc(N2CCN(C(=O)c3ccc(NC(=O)C4=CSCCO4)cc3)CC2)cc1", "values": [{"measurement": "AC50", "setting": "[1]", "value": "31.6 µM [rising, single point]"}]}
{"smiles": "COc1ccccc1/C=C1\\SC(=S)N(CCC(=O)NCCc2ccc(O)cc2)C1=O", "values": [{"measurement": "AC50", "setting": "[1]", "value": "12.6 µM [falling, partial curve]"}]}
{"smiles": "O=C(CCc1nc2ccccc2c(=O)[nH]1)N1CCN(C/C=C/c2ccccc2)CC1", "values": [{"measurement": "AC50", "setting": "[1]", "value": "0.184 µM [rising, full curve, poor fit]"}]}
{"smiles": "O=C(CSc1nnc(C2CC2)n1C1CC1)c1ccccc1F", "values": [{"measurement": "AC50", "setting": "[1]", "value": "16.4 µM [falling, partial curve]"}]}
{"smiles": "CC1=NN(c2ccccc2)C(=O)C1", "values": [{"measurement": "AC50", "setting": "[1]", "value": "1 µM [rising, partial curve, poor fit]"}, {"measurement": "AC50", "setting": "[2]", "value": "3.16 µM [rising, full curve, poor fit]"}]}
{"smiles": "O=C(CN1CCN(Cc2ccccc2Cl)C1=O)NCc1ccccn1", "values": [{"measurement": "AC50", "setting": "[1]", "value": "5.62 µM [rising, single point]"}]}
{"smiles": "Cc1ccc(NC(=O)c2cc(S(=O)(=O)N3CCCC3)cn2C)cc1", "values": [{"measurement": "AC50", "setting": "[1]", "value": "7.08 µM [falling, full curve]"}, {"measurement": "AC50", "setting": "[2]", "value": "11.2 µM [rising, partial curve, poor fit]"}]}
{"smiles": "Cn1ccc2c(OCC(=O)NCc3ccccc3Cl)cccc2c1=O", "values": [{"measurement": "AC50", "setting": "[1]", "value": "35.5 µM [falling, single point]"}]}
{"smiles": "Cc1ccc(/C=N/NC(=O)Cn2nc(C)c(Br)c2C)o1", "values": [{"measurement": "AC50", "setting": "[1]", "value": "16.4 µM [falling, single point]"}]}
{"smiles": "CC(=O)N(CCc1ccccc1C)Cc1cc2ccc(C)cc2[nH]c1=O", "values": [{"measurement": "AC50", "setting": "[1]", "value": "5.62 µM [rising, single point]"}]}
{"smiles": "COc1cc2c(cc1OC)C(c1cccc(Br)c1)NC(=O)C2", "note": "(stereo not given)", "values": [{"measurement": "AC50", "setting": "[1]", "value": "14.1 µM [rising, single point]"}]}
{"smiles": "O=C(O)c1cccc(NC(=O)c2ccccc2NC(=O)c2ccco2)c1", "values": [{"measurement": "AC50", "setting": "[1]", "value": "14.1 µM [falling, partial curve, poor fit]"}]}
{"smiles": "COc1ccc(CNCC(O)COc2cccc3c2OC(C)(C)C3)cc1", "note": "(stereo not given)", "values": [{"measurement": "AC50", "setting": "[1]", "value": "3.16 µM [falling, partial curve, poor fit]"}]}
{"smiles": "Cc1cc(C)nc(NCc2ccc(Cl)cc2)n1", "values": [{"measurement": "AC50", "setting": "[1]", "value": "7.94 µM [rising, partial curve, poor fit]"}]}
{"smiles": "CN(C)C(=O)c1ccc(NC(=O)c2ccccc2SCC(=O)N2CCCC2)cc1", "values": [{"measurement": "AC50", "setting": "[1]", "value": "0.00461 µM [rising, full curve]"}]}
{"smiles": "COCCCNC(=S)Nc1ccccc1C", "values": [{"measurement": "AC50", "setting": "[1]", "value": "0.82 µM [rising, full curve, poor fit]"}]}
{"smiles": "O=C(O)c1ccc2nc(-c3cc4cc(F)ccc4oc3=O)[nH]c2c1", "values": [{"measurement": "AC50", "setting": "[2]", "value": "31.6 µM [rising, partial curve, poor fit]"}]}
{"smiles": "CCOCc1cnc(C)nc1NCC(=O)c1c(C)n(C)c2ccc(OC)cc12", "values": [{"measurement": "AC50", "setting": "[1]", "value": "35.5 µM [rising, single point]"}, {"measurement": "AC50", "setting": "[2]", "value": "35.5 µM [falling, single point]"}]}
{"smiles": "Cc1ccc([N+](=O)[O-])cc1S(=O)(=O)N1CCCC1", "values": [{"measurement": "AC50", "setting": "[1]", "value": "0.92 µM [rising, full curve, poor fit]"}, {"measurement": "AC50", "setting": "[2]", "value": "2.59 µM [falling, partial curve, poor fit]"}]}
{"smiles": "CC(C)Cc1cc(C(=O)O)n[nH]1", "values": [{"measurement": "AC50", "setting": "[1]", "value": "0.517 µM [rising, partial curve, poor fit]"}]}
{"smiles": "Cc1cc(Cl)c(S(=O)(=O)Nc2ccc3c(c2)OCCO3)cc1OCC(=O)NC1CCCCC1", "values": [{"measurement": "AC50", "setting": "[1]", "value": "2.06 µM [falling, single point]"}]}
{"smiles": "O=C(N/C=C/n1cnc2cc(C(F)(F)F)ccc21)c1ccccc1F", "values": [{"measurement": "AC50", "setting": "[1]", "value": "35.5 µM [rising, single point]"}]}
{"smiles": "CCC(CO)Oc1cc(NCc2ccccc2O)c2ncn(C(C)C)c2c1", "note": "(stereo not given)", "values": [{"measurement": "AC50", "setting": "[1]", "value": "32.6 µM [falling, single point]"}]}
{"smiles": "COc1cc(NC(=O)c2ccnc(N)c2)cc(C(=O)Nc2cccc(C(F)(F)F)c2)c1", "values": [{"measurement": "AC50", "setting": "[1]", "value": "0.355 µM [falling, full curve, poor fit]"}]}
{"smiles": "CN(C)S(=O)(=O)Oc1ccccc1C(=O)Nc1cccc(C(F)(F)F)c1", "values": [{"measurement": "AC50", "setting": "[1]", "value": "12.6 µM [rising, single point]"}]}
{"smiles": "Cc1cc2nc(Sc3c([N+](=O)[O-])nc(C)n3Cc3ccccc3)[nH]c2cc1C", "values": [{"measurement": "AC50", "setting": "[1]", "value": "2.91 µM [falling, partial curve]"}]}
{"smiles": "COc1ccccc1/C=N/NC(=O)c1ccccc1Cl", "values": [{"measurement": "AC50", "setting": "[1]", "value": "11.2 µM [falling, single point]"}]}
{"smiles": "Cc1ccc(/C=N/Nc2nc3ccccc3[nH]2)s1", "values": [{"measurement": "AC50", "setting": "[1]", "value": "11.6 µM [falling, partial curve]"}]}
{"smiles": "O=C(N/N=C/c1cccc(F)c1)c1c(O)c2c([nH]c1=O)CCCC2", "values": [{"measurement": "AC50", "setting": "[1]", "value": "0.0651 µM [falling, full curve]"}]}
{"smiles": "O=C(NC(=S)NCc1ccncc1)c1ccccc1", "values": [{"measurement": "AC50", "setting": "[1]", "value": "17.8 µM [falling, single point]"}]}
{"smiles": "COC(=O)c1cc2oc3ccccc3c2n1CC(=O)N1CCCc2ccccc21", "values": [{"measurement": "AC50", "setting": "[1]", "value": "0.92 µM [falling, full curve, poor fit]"}]}
{"smiles": "COc1cccc(C(N)CC(=O)O)c1", "note": "(stereo not given)", "values": [{"measurement": "AC50", "setting": "[1]", "value": "29.1 µM [rising, single point]"}]}
{"smiles": "O=C(NCc1ccccc1)c1ccc2nc(-c3ccco3)c(-c3ccco3)nc2c1", "values": [{"measurement": "AC50", "setting": "[1]", "value": "9.2 µM [falling, partial curve]"}, {"measurement": "AC50", "setting": "[2]", "value": "3.66 µM [rising, partial curve, poor fit]"}]}
{"smiles": "CC1(c2ccc([N+](=O)[O-])cc2)Nc2ccccc2S1", "note": "(stereo not given)", "values": [{"measurement": "AC50", "setting": "[1]", "value": "0.1 µM [rising, full curve, poor fit]"}]}
{"smiles": "N=c1c(C(=O)NCc2ccc(F)cc2)cc2c(=O)n3ccccc3nc2n1Cc1cccnc1", "values": [{"measurement": "AC50", "setting": "[1]", "value": "29.1 µM [rising, single point]"}]}
{"smiles": "COc1cccc(N(C(=O)c2ccco2)c2nc(-c3sc(NC(=O)c4ccco4)nc3C)cs2)c1", "values": [{"measurement": "AC50", "setting": "[1]", "value": "7.94 µM [falling, partial curve]"}]}
{"smiles": "COc1ccc(C(=O)Nc2ccc(N3CCCC3)cc2)cc1Br", "values": [{"measurement": "AC50", "setting": "[1]", "value": "0.562 µM [falling, full curve, poor fit]"}]}
